From paper PMC3189947
Results are given in words; binding and its absence hold for the method and conditions named. Some binding calls cover weakened binding; strength is not graded here. For part of these data: Where a sequence is shown, tags or fusion partners need not be part of it.

Sequences of proteins named here, by UniProt entry; tags and fusion partners are left off. Residues count along the entry.
UniProt Q92968, residues 272-336: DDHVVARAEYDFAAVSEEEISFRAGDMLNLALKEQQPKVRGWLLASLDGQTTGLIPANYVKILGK
UniProt P46108, residues 235-296: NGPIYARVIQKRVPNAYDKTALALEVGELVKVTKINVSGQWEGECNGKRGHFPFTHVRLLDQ
UniProt Q92783, residues 210-269: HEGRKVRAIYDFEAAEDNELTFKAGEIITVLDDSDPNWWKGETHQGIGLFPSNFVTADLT
UniProt Q14155, residues 184-243: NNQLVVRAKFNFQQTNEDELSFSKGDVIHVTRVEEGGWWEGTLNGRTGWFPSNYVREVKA
UniProt Q14247, residues 492-550: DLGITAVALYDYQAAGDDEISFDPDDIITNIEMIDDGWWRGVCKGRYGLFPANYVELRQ
UniProt Q14160, residues 1100-1194: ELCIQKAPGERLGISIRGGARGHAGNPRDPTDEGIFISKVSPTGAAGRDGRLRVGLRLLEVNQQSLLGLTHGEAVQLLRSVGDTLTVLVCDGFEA
UniProt Q14CM0, residues 78-155: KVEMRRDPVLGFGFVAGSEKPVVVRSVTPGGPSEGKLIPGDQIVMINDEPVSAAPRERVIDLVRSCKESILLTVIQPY
UniProt P78352, residues 313-393: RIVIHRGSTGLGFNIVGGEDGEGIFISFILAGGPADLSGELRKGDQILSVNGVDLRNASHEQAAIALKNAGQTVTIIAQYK
UniProt Q8TEW0, residues 590-677: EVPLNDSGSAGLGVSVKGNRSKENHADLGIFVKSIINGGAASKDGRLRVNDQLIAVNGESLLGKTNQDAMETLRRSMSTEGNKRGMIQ
UniProt Q9GZV1: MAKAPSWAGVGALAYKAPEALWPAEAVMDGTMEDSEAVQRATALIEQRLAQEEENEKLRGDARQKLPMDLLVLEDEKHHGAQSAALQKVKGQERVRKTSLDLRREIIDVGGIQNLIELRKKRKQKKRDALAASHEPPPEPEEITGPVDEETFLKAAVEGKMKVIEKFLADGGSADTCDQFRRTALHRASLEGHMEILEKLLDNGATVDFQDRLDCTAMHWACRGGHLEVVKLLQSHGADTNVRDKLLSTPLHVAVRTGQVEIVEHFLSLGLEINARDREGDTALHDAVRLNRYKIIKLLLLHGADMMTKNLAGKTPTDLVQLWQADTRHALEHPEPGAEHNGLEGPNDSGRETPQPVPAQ

Tests used:
[1] = target: PEXD, Peroxisomal membrane protein PEX13 (GST protein, SH3 array) (UniProt Q92968); assay: peptide or protein array; SH3 Domain Array (Panomics/Affymetrix), 38 GST-SH3 domain proteins spotted in duplicate, probed with His-tagged Ankrd2 (15 ug/ml); both purified
[2] = target: CRK-D2, sarcoma virus CT10 oncogene homolog, domain 2 (GST protein, SH3 array) (UniProt P46108); assay: as above
[3] = target: Stam, Signal transducing adaptor molecule (GST protein, SH3 array) (UniProt Q92783); assay: as above
[4] = target: T1, PLC γ, Phospholipase C gamma-1 (GST protein, SH3 array) (UniProt P19174); assay: as above
T1 sequence: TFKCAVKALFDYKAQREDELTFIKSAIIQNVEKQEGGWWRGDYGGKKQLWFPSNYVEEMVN

[5] = target: Y124, PAK-interacting exchange factor beta (GST protein, SH3 array) (UniProt Q14155); assay: as above
[6] = target: Cortactin (GST protein, SH3 array) (UniProt Q14247); assay: as above
[7] = target: T2, RIM2, regulating synaptic membrane exocytosis 2 (GST-PDZ, PDZ array IV) (UniProt Q9UQ26); assay: peptide or protein array; PDZ arrays I-IV (Panomics/Affymetrix), GST-PDZ proteins spotted in duplicate on membranes, probed with His-tagged Ankrd2 (15 ug/ml), developed by ECL; both purified
T2 sequence: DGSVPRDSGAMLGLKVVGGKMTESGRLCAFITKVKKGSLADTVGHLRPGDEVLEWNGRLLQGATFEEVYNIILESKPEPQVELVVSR

[8] = target: T3, RIL, Reversion-induced LIM protein (GST-PDZ, PDZ array I) (UniProt P50479); assay: as above
T3 sequence: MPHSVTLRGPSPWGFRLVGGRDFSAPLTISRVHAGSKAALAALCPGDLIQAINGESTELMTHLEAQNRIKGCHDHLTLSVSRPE

[9] = target: SCRIB1-D4, Scribble domain 4 (GST-PDZ, PDZ array III) (UniProt Q14160); assay: as above
[10] = target: T4, MUPP1-D13, domain 13 of the multiple PDZ domain protein (GST-PDZ, PDZ array IV) (UniProt O75970); assay: as above
T4 sequence: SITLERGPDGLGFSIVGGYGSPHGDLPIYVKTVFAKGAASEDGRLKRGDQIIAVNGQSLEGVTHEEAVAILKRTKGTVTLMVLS

[11] = target: KIAA0316, FERM and PDZ domain containing 4 (GST-PDZ, PDZ array II) (UniProt Q14CM0); assay: as above
[12] = target: T5, SDB2-D2, domain 2 of syntenin-2 beta (GST-PDZ, PDZ array III) (UniProt Q9H190); assay: as above
T5 sequence: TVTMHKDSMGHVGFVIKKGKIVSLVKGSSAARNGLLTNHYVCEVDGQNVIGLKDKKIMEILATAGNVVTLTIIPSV

[13] = target: T6, MUPP1-D6, domain 6 of the multiple PDZ domain protein (GST-PDZ, PDZ array IV) (UniProt O75970); assay: as above
T6 sequence: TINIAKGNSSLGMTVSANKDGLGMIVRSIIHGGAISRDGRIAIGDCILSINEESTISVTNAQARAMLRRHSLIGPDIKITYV

[14] = target: T7, SNB1, Beta-1-syntrophin (GST-PDZ, PDZ array IV) (UniProt Q13884); assay: as above
T7 sequence: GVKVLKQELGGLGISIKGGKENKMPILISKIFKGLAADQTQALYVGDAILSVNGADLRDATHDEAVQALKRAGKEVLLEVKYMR

[15] = target: Dlg4-D3, Discs large homolog 4, domain 3 (GST-PDZ, PDZ array I) (UniProt P78352); assay: as above
[16] = target: PARD-3, partitioning-defective 3 homolog, domain 3 (GST-PDZ, PDZ array III) (UniProt Q8TEW0); assay: as above
[17] = target: T8, DLG5-D1, Discs large homolog 5, domain 1 (GST-PDZ, PDZ array IV) (UniProt Q8TDM6); assay: as above
T8 sequence: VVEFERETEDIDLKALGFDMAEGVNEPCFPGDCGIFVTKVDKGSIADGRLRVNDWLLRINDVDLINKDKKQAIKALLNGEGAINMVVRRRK

[18] = target: T9, hCLIM1, PDZ and LIM domain protein 1 (GST-PDZ, PDZ array I) (UniProt O00151); assay: as above
T9 sequence: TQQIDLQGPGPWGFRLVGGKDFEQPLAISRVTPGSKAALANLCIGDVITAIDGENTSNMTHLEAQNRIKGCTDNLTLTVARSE

binding [1]: binds
binding [2]: binds
binding [3]: binds
binding [4]: binds
binding [5]: binds
binding [6]: binds
binding [7]: binds
binding [8]: binds
binding [9]: binds weakly
binding [10]: binds
binding [11]: binds weakly
binding [12]: binds
binding [13]: binds
binding [14]: binds
binding [15]: binds weakly
binding [16]: binds weakly
binding [17]: binds weakly
binding [18]: binds weakly
Substance: His-tagged Ankrd2 protein (from UniProt Q9GZV1 1-360)
